PubChem BioAssay AID1259254 – NCATS | 2017

Purpose: 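Gene knock-downs that lead to re-replication, shown by excess G2 DNA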 (primary screen)
Cells: human HCT116 colorectal cancer cells
Reagent: single siRNA against human genes
Duration: 3 days
Measured: 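Imaged Hoechst DNA stain sorts each cell into a cycle phase by DNA amount; per plate, G2 fraction set to 0% for non-targeting and 100% for GMNN siRNA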
Reading the numbers: G2 robust z-score and G2 cells, % of GMNN control: higher = more G2 cells, more excess DNA replication
Rule for the call: 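An siRNA counts as active if its G2 robust z-score lies at least 5 MADs above the screen median; here such calls match roughly 38% of GMNN control or more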
This is an unselected part of about 59,000 reagents. Of all reagents, about 1,550 (2.6%) were called active. 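G2 share is only a proxy for re-replication; each gene was hit by three separate siRNAs, and active genes were retested.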 Entries without a mark were called inactive. Reagents against one gene are numbered here. Further read-outs or replicates are left out here. Not stated in the record: the amount of reagent.

Gene	reagent no.	G2 robust z-score	G2 cells, % of GMNN control
PSG6	1	3.01	24.1
PSG6	2	-0.994	-4.03
PSG6	3	0.327	5.27
HSPD1	1	2.9	23.4
HSPD1	2	-0.768	-2.43
HSPD1	3	0.242	4.67
COL6A2	1	-0.44	-0.132
COL6A2	2	-0.303	0.836
COL6A2	3	0.0753	3.5
MTFR1	1	-0.739	-2.23
MTFR1	2	0.256	4.77
MTFR1	3	-0.543	-0.852
CIMAP2	1	0.807	8.65
CIMAP2	2	3.69	28.9
CIMAP2	3	2.5	20.5
CIMIP2C	1	0.0418	3.26
CIMIP2C	2	1.87	16.1
CIMIP2C	3	0.237	4.64
MYBPHL	1	-0.244	1.25
MYBPHL	2	-0.06	2.54
MYBPHL	3	-0.706	-2
MPEG1	1	0.00473	3
MPEG1	2	-0.492	-0.491
MPEG1	3	4.44	34.2

Quoted from the entries so far for reference:
Gene	reagent no.	G2 robust z-score	G2 cells, % of GMNN control
CIMAP2	2	3.69	28.9
CIMAP2	3	2.5	20.5
CIMIP2C	1	0.0418	3.26
CIMIP2C	2	1.87	16.1
CIMIP2C	3	0.237	4.64

Further results follow.
Gene	reagent no.	G2 robust z-score	G2 cells, % of GMNN control
BTNL8	1	-1.06	-4.47
BTNL8	2	-0.934	-3.61
BTNL8	3	-1.03	-4.29
AP3M2	1	-0.016	2.85
AP3M2	2	-0.501	-0.56
AP3M2	3	-0.261	1.13
MED29	1	-0.618	-1.38
MED29	2	1.21	11.5
MED29	3	-0.713	-2.05
H2AZ2	1	-0.0532	2.59
H2AZ2	2	-0.578	-1.1
H2AZ2	3	0.359	5.49
ITGAV	1	11.7 (active)	85.1
ITGAV	2	12.5 (active)	90.8
ITGAV	3	8.64 (active)	63.8
LINC01347	1	0.551	6.84
LINC01347	2	4.56	35
LINC01347	3	-0.125	2.09
CDC42EP4	1	-0.0423	2.67
CDC42EP4	2	-0.397	0.172
CDC42EP4	3	-0.0761	2.43
CTAG2	1	-0.519	-0.687
CTAG2	2	3.79	29.7
CTAG2	3	2.25	18.8
ACTL6A	1	8.87 (active)	65.4
ACTL6A	2	1.07	10.5
ACTL6A	3	0.256	4.77
HCG27	1	-1.15	-5.09
HCG27	2	-0.945	-3.68
HCG27	3	-0.388	0.241
ANXA6	1	-0.578	-1.1
ANXA6	2	1.87	16.1
ANXA6	3	2.09	17.6
CALHM2	1	-1.09	-4.67
CALHM2	2	3.11	24.8
CALHM2	3	0.875	9.13
VAV2	1	-1.03	-4.27
VAV2	2	-1.02	-4.18
VAV2	3	0.336	5.33
ITPRID2	1	0.912	9.38
ITPRID2	2	-0.045	2.65
ITPRID2	3	-0.769	-2.44
AKAP11	1	-0.562	-0.985
AKAP11	2	0.111	3.75
AKAP11	3	-0.819	-2.8
